≈ marks a conversion by molar mass, not a printed value. At least one compound was matched to its structure with a doubt left.
Target: α-glucosidase (acetone powder in the intestinal canal of rat)
Experiment: α-glucosidase inhibitory activity (4-methylumbelliferyl-α-D-glucoside, fluorometry)
Format: biochemical
Protocol: Next, α-glucosidase inhibitory activity (%) in regard to the embodiment 1 (evening primrose seed extract) was identified by the following method. As for the α-glucosidase for this measurement, 0.1 mol maleic acid buffer solution (pH 6.0) was added to the acetone powder in the intestinal canal of rat (SIGMA CHEMICAL CO.) and homogenized in ice by using a glass homogenizer, and then centrifugalized supernatant was diluted 20 times. Measuring method is shown below. […] After that, the reaction was suspended by adding 3 ml glycin buffer solution (pH 10.3) and the quantity of the isolated 4-methylumbelliferyl was determined by using a fluorometer (excitation wavelength: 366 nm & fluorescent wavelength: […]). Enzyme activity was calculated based on this determined value and inhibitory activity (%) was calculated by the following formula. […] Inhibitory activity (%)=100−Enzyme activity (%)

Which “IC50 (50% inhibitory concentration) against α-glucosidase” value does the source give for `O=C(OC[C@H]1O[C@@H](OC(=O)c2cc(O)c(O)c(O)c2)[C@H](OC(=O)c2cc(O)c(O)c(O)c2)[C@@H](OC(=O)c2cc(O)c(O)c(O)c2)[C@@H]1OC(=O)c1cc(O)c(O)c(O)c1)c1cc(O)c(O)c(O)c1` [Pentagalloylglucose] here?
Its value is 40 µg/mL (≈ 42.5 µM).

Reference: patent US6932990B2, “Carbohydrate absorption inhibitor and method for manufacturing the same” (Oryza Oil & Fat Chemical Co., Ltd., priority 2000, dated 2005)
